Laboratory results published in paper PMC12521168.
Results are given in words; binding and its absence hold for the method and conditions named. Binding seen in cells or lysates may run through a third protein. Some entries that bind do so weakly or less than the wild type.

Sequences of proteins named here, by UniProt entry; tags and fusion partners are left off.
UniProt P46938: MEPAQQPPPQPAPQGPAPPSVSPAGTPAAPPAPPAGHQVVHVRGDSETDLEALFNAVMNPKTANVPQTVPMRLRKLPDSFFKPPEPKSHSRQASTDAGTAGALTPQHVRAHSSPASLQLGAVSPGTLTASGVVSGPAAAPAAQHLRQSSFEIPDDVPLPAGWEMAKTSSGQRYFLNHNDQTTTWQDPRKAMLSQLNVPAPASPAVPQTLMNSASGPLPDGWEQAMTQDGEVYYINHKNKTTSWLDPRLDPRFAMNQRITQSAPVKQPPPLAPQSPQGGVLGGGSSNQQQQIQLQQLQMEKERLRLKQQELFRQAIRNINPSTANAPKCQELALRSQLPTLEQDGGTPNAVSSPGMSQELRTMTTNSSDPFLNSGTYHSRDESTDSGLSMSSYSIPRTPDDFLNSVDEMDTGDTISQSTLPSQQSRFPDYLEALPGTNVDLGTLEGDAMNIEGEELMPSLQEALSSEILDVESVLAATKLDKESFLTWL
UniProt P30051: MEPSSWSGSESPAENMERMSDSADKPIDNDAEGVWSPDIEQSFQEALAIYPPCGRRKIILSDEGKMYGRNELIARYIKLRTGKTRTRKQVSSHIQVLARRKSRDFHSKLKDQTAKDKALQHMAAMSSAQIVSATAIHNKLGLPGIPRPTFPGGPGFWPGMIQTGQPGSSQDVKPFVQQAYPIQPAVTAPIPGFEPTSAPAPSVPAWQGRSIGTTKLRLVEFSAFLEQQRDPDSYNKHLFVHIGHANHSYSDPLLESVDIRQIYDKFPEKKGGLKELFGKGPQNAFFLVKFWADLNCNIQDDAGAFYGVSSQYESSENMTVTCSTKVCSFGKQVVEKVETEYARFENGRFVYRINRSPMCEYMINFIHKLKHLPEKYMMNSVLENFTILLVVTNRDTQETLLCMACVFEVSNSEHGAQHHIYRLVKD

Molecular target: Yes-associated protein 1 (UniProt P46938)
Assay: co-IP; whole-cell extracts prepared after transfection, incubated with the YAP1 antibody overnight at 4 °C, protein A&G beads 4 hours at 4 °C; western blot for TEAD1

## TEAD1 (from UniProt P30051 1-426)
  binding: binds
